The other results are listed elsewhere or left out. The main result of the screen is listed elsewhere. These columns were measured beside it and carry no call. The list favours compounds with an active or inconclusive main result. The note in brackets gives the kind of curve behind each potency; many fits are weak.
Experiment: qHTS Assay for Lipid Storage Modulators in Drosophila S3 Cells;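 as to cell number change: cells counted by Cell Tracker Red CMTPX staining in the red channel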
Conditions: BODIPY lipid droplet fluorescence, 18-24 h; for cell number change: measured here: cell count max response, cells fed with added oleic acid
Outline: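 Laser-scanning cytometry quantifies lipid droplet accumulation (500–530 nm total intensity; droplet/cell object ratio) in oleic acid-fed (400 uM added) Drosophila S3 cells treated with a concentration series. 20 uM Triacsin C defined 100% inhibition.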

[1] = measured here: lipid fluorescence (Fed channel) AC50, cells fed with added oleic acid
[2] = measured here: cell number channel AC50, cells fed with added oleic acid

SMILES | cell number change [%] | AC50 [1] | AC50 [2]
O=C(CN1CCN(c2ccc(F)cc2)CC1)Nc1nnc(-c2ccccc2)s1 | 24.1 | 2.91 µM [rising, partial curve, poor fit] | 
CCCn1c(N)c(C(=O)CSc2nnc(C3CC3)n2Cc2ccccc2)c(=O)n(C)c1=O | -8.42 |  | 
O=C1OC2(CCCCC2)CC2=C1C1O[C@](c3ccsc3)(Cc3ccccc31)O2 | -0.291 | 0.668 µM [falling, single point] | 
COCCCn1c(-c2ccsc2)nc2c1c(=O)[nH]c(=O)n2Cc1ccccc1 | -8.74 | 20.6 µM [rising, single point] | 
COC(=O)c1c(NC(=O)Nc2ccc(Cl)cc2)sc(C)c1C | -37.6 | 0.461 µM [rising, full curve] | 
COc1ccccc1/C=C(/C(=O)OCC(=O)Nc1ccccc1C)c1ccccc1 | -23 | 0.411 µM [falling, partial curve, poor fit] | 0.731 µM [rising, partial curve, poor fit]
CC1CCN(C(=O)c2ccc(N3C(=O)c4ccccc4C3=O)cc2)CC1 | -7.69 | 29.1 µM [rising, single point] | 
COc1ccc2c(c1)c1nc3ccccc3nc1n2CC(=O)OC(C)C |  | 0.731 µM [rising, full curve] | 1.3 µM [rising, full curve]
CCC(Oc1ccccc1OC)C(=O)Nc1ccc2c(c1)OCCO2 (centres undefined) | 33.3 |  | 
COc1ccccc1NC(=O)NC(N)=O | 125 |  | 16.4 µM [rising, partial curve]
Cc1ccccc1N=C1NN=C(c2ccccc2F)CS1 | 12.5 | 0.411 µM [falling, partial curve] | 
OCC[C@H]1C[C@@H](O)[C@H](O)[C@]2(OCCc3ccccc32)O1 | -17 | 18.4 µM [falling, single point] | 
O=C(COC(=O)C1CC(=O)N(Cc2ccco2)C1)c1ccc(OC(=O)c2ccco2)cc1 (centres undefined) | -34.1 | 25.9 µM [falling, single point] | 25.9 µM [falling, single point]
CC1CC(C)CN(S(=O)(=O)c2ccc3c(c2)oc(=O)n3CC(=O)N(C)Cc2ccccc2)C1 (centres undefined) | 9.28 | 16.4 µM [falling, partial curve] | 
Cc1ccc(C=C2C(Cl)=C(Cl)C(Cl)=C2Cl)cc1 | -24.3 | 5.8 µM [falling, full curve] | 
CCOC(=O)c1cnc2ccc(C(=O)OC)cc2c1Nc1cccc(C(=O)O)c1 | 30 | 29.1 µM [rising, single point] | 7.31 µM [rising, partial curve, poor fit]
COCCn1c(SCC(=O)Nc2ccc(C(N)=O)cc2)nc2c([nH]c3ccccc32)c1=O | 18.2 | 29.1 µM [rising, single point] | 
OCC[C@H]1C[C@@H](O)[C@H](O)[C@]2(OCc3ccccc32)O1 | -5.36 | 3.66 µM [rising, full curve] | 
CC(C)Sc1ncnc2c1oc1ccccc12 | -42.1 |  | 29.1 µM [falling, single point]
CCCOc1ccc(-c2nc(=S)[nH][nH]2)cc1 |  |  | 6.51 µM [falling, single point]
CS(=O)(=O)N1CCc2cc(C(=O)N3CCN(c4ccccc4)CC3)ccc21 | 3.88 | 0.92 µM [rising, partial curve] | 
Cc1noc(C)c1C(=O)Nc1nc2ccccc2s1 | -87.3 | 0.00731 µM [falling, full curve, poor fit] | 10.3 µM [falling, partial curve, poor fit]
NC(=O)c1cccn1Cc1cccc(Cl)c1 |  | 6.51 µM [falling, partial curve, poor fit] | 0.00517 µM [falling, full curve, poor fit]
Cc1ccc(C2OC3=C(C(=O)CC(C)(C)C3)C(N)=C2C#N)o1 (centres undefined) | -19.4 |  | 0.291 µM [falling, partial curve, poor fit]
CCOC(=O)c1c(NC(=O)c2cccs2)sc(C)c1CC | -14.1 | 4.11 µM [rising, single point] | 
COc1cc(CC(=O)NCc2cccs2)cc(OC)c1OC | 36.5 |  | 20.6 µM [rising, single point]
Cc1cc(C)c2[nH]c(=O)c(CN(CC3CCCO3)C(=S)NCc3ccco3)cc2c1 (centres undefined) | 11.7 | 0.291 µM [rising, full curve] | 4.11 µM [rising, single point]
Clc1cccc(Cl)c1/C=N/Nc1c(Cl)cncc1Cl | 10.9 | 0.731 µM [falling, single point] | 0.731 µM [falling, single point]

Arranged by SMILES length (falling): part of the list above
SMILES | cell number change [%] | AC50 [1] | AC50 [2]
Cc1cc(C)c2[nH]c(=O)c(CN(CC3CCCO3)C(=S)NCc3ccco3)cc2c1 (centres undefined) | 11.7 | 0.291 µM [rising, full curve] | 4.11 µM [rising, single point]
O=C1OC2(CCCCC2)CC2=C1C1O[C@](c3ccsc3)(Cc3ccccc31)O2 | -0.291 | 0.668 µM [falling, single point] | 
CC1CCN(C(=O)c2ccc(N3C(=O)c4ccccc4C3=O)cc2)CC1 | -7.69 | 29.1 µM [rising, single point] | 
Cc1ccc(C2OC3=C(C(=O)CC(C)(C)C3)C(N)=C2C#N)o1 (centres undefined) | -19.4 |  | 0.291 µM [falling, partial curve, poor fit]
Cc1ccc(C=C2C(Cl)=C(Cl)C(Cl)=C2Cl)cc1 | -24.3 | 5.8 µM [falling, full curve] | 
